Some of the results follow.
Compound: c1ccc([C@@H]2C[C@H]2NC2CCNCC2)cc1
Assay: log2 fold change, soluble protein after heating vs DMSO (PISA); higher = thermal stabilisation; K562 cells, 10 uM, 30 min; active = over 0.2 and 3.5 SD of the protein, either way, in both replicates (recomputed)
In short: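 K562 cells at 2×10^6 cells/mL were treated with 10 μM compound for 30 min. Aliquots were heated for 3 min across 48°C-58°C, pooled, and extracted in PBS with 0.5% NP-40 at 4°C; soluble protein was the supernatant after 21,000xg for 90 min. Soluble protein was quantified by TMTpro 16plex LC-MS/MS with channel sums equalised, and reported as log2 fold change in thermal stability against DMSO controls, with values from duplicates.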

Chains of the proteins cited; added tags and fusions are not shown. Lines headed by an entry give the natural chain unless they say otherwise; changes in a name come on top.
UniProt Q9Y587: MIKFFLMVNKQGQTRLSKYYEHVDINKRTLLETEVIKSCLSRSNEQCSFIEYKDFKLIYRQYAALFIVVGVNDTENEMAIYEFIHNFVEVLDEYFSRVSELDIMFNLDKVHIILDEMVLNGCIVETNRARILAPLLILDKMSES
UniProt Q8IZ07: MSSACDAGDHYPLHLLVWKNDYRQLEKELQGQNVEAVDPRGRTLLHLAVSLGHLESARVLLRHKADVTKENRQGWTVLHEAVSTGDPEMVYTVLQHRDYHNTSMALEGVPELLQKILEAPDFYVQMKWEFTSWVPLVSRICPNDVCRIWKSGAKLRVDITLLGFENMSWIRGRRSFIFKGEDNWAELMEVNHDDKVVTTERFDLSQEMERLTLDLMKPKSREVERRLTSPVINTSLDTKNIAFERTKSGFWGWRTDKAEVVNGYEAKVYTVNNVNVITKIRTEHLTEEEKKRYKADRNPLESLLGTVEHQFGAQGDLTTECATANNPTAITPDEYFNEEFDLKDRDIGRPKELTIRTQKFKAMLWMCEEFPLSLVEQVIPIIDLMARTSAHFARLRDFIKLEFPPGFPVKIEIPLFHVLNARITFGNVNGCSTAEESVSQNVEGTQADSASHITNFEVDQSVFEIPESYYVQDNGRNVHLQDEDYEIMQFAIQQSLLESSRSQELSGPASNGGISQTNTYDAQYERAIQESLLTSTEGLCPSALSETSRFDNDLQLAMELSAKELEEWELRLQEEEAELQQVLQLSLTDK
UniProt O14791: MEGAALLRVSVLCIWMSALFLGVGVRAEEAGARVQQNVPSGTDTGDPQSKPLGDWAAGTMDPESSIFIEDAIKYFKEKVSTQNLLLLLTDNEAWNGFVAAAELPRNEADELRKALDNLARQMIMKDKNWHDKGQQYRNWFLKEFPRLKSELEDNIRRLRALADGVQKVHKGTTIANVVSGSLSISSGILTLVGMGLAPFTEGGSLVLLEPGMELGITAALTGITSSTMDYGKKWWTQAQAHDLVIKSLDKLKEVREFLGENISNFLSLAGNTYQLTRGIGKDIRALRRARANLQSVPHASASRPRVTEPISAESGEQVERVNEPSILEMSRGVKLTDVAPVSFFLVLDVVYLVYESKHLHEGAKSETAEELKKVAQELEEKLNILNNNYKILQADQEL
UniProt P13798: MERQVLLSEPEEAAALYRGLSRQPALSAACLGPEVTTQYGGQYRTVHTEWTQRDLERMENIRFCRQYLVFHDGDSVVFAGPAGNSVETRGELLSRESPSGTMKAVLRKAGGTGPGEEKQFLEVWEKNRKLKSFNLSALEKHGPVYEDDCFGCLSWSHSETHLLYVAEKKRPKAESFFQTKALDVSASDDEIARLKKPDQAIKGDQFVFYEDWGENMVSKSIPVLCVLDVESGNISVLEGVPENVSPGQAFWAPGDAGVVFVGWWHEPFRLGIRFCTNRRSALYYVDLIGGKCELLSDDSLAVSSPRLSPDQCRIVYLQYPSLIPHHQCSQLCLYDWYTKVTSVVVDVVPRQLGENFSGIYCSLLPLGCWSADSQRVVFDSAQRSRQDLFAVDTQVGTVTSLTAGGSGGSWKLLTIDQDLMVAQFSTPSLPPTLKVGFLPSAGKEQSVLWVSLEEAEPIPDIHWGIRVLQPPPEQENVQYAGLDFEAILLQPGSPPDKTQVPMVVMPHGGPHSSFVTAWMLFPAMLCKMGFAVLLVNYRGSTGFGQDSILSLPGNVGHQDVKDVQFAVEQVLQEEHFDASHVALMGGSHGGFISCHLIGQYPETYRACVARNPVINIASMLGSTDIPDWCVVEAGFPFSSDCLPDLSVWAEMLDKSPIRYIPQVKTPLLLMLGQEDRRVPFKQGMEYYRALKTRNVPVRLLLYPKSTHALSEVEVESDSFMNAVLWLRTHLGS
UniProt P53365: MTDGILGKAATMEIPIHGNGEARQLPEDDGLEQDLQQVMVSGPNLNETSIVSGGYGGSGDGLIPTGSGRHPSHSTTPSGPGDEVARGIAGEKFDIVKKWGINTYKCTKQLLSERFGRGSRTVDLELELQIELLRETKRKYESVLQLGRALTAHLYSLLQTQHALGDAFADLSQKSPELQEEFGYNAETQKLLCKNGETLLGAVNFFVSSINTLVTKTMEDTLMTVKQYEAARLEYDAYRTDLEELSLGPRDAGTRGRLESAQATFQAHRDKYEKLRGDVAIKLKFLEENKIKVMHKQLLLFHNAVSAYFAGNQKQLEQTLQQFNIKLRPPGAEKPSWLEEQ
UniProt P09525: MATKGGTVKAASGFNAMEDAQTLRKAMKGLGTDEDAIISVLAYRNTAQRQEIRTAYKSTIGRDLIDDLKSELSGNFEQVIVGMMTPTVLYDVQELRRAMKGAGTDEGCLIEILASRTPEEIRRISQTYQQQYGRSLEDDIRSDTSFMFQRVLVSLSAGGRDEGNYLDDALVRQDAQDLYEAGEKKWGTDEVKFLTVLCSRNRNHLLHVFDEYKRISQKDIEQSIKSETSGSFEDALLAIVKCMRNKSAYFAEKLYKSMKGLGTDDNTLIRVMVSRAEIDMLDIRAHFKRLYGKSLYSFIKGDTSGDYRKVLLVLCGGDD
UniProt P84077: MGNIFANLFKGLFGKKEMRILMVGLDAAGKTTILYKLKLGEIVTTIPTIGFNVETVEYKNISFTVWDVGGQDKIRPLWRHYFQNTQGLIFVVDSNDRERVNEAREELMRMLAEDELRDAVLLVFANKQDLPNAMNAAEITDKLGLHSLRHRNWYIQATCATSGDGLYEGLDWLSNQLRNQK
UniProt Q92624: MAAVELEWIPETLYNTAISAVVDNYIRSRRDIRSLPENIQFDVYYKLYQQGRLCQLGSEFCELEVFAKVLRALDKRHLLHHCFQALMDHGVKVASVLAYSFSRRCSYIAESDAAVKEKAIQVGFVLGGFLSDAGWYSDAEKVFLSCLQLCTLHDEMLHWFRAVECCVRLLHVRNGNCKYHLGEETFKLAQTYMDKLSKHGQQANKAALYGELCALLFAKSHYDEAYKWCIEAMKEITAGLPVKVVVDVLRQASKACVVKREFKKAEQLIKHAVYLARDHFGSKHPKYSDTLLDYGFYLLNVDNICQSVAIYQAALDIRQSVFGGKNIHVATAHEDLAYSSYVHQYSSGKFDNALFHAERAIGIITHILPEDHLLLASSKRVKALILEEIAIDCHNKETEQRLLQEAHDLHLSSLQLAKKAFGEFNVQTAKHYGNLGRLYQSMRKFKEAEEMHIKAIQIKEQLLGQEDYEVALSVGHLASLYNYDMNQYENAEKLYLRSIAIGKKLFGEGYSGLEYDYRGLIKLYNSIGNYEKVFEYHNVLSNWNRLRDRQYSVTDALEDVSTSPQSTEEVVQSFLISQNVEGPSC
UniProt P53367: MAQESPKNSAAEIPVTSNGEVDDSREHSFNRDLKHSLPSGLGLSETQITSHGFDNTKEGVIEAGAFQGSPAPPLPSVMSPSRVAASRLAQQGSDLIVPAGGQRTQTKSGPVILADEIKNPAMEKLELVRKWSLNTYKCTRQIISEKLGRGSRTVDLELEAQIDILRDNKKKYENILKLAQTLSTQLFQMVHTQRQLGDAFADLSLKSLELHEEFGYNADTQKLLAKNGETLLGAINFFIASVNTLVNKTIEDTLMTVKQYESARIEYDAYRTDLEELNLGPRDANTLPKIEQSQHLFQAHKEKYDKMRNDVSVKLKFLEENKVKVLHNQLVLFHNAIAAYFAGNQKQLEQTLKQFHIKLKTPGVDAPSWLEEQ
UniProt Q9H8Y5: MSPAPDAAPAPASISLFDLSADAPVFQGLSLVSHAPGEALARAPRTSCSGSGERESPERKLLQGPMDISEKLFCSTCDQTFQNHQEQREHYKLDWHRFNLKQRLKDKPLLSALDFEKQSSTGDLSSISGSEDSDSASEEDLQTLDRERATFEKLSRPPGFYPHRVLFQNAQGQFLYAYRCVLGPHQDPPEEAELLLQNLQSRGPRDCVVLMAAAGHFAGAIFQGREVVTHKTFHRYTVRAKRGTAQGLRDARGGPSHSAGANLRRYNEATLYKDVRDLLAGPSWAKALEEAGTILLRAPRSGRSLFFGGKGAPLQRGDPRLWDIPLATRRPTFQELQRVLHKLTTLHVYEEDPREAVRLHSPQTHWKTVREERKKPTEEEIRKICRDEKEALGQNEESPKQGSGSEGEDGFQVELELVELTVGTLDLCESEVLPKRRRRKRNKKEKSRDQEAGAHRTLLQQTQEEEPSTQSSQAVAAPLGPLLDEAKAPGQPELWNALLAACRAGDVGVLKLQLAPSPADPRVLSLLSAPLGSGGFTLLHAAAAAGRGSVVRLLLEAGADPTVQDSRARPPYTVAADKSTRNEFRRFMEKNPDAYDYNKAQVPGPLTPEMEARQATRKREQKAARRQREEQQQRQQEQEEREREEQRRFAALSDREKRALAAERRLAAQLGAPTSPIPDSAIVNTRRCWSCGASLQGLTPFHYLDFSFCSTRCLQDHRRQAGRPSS
UniProt Q9BUR5: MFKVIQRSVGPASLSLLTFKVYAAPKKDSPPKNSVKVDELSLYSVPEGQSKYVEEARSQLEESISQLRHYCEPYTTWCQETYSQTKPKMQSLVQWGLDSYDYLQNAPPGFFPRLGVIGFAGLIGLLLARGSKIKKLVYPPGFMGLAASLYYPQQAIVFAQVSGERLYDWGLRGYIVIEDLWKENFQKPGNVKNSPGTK
UniProt Q0VD83: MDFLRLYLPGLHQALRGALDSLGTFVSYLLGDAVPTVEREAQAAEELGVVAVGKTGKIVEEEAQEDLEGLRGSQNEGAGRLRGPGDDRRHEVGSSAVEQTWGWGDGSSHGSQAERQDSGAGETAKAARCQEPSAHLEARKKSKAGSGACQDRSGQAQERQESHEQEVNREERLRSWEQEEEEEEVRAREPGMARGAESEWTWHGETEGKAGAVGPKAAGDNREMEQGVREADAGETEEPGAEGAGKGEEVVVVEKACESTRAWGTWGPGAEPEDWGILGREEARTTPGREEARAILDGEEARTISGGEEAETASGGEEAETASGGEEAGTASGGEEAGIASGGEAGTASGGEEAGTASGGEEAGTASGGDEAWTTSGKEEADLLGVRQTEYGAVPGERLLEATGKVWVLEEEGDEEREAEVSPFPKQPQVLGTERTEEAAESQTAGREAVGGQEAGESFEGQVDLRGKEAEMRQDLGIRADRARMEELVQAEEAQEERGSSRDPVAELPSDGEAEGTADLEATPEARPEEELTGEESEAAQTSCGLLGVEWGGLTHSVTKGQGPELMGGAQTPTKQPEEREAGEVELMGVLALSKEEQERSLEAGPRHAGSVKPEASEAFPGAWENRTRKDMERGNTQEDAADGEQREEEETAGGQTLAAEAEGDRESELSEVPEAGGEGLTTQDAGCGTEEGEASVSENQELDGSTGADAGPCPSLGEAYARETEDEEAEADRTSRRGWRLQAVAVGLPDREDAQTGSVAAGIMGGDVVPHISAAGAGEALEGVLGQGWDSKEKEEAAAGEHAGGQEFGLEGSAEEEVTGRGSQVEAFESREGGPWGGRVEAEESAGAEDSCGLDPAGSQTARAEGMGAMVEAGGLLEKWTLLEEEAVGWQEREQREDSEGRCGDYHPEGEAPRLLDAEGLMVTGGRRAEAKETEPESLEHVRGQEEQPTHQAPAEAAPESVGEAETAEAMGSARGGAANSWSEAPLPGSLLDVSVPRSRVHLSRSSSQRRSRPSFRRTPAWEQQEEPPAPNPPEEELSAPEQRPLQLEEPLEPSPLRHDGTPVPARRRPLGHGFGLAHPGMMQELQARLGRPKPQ

Target	log2 fold change
AP3D1 isoform 5 (UniProt O14617)	inactive: -0.037
AP4S1 (UniProt Q9Y587)	inactive: 0
ANKRD13A (UniProt Q8IZ07)	inactive: -0.028
APOL1 isoform 2 (UniProt O14791)	inactive: -0.11
APEH (UniProt P13798)	inactive: 0.012
ARFIP2 (UniProt P53365)	inactive: 0.015
ANXA4 (UniProt P09525)	inactive: -0.019
ARF1 (UniProt P84077)	inactive: 0.052
APC (UniProt P25054)	inactive: 0.056
APPBP2 (UniProt Q92624)	inactive: -0.151
APOL2 (UniProt J3KQL8)	inactive: -0.122
ARFIP1 (UniProt P53367)	inactive: -0.03
ANKZF1 (UniProt Q9H8Y5)	inactive: -0.008
APOO (UniProt Q9BUR5)	inactive: 0.076
APOBR (UniProt Q0VD83)	inactive: 0.055

Laid out differently: results already given
Target | log2 fold change
APOL2 (UniProt J3KQL8) | inactive: -0.122
ARFIP1 (UniProt P53367) | inactive: -0.03
ANKZF1 (UniProt Q9H8Y5) | inactive: -0.008
APOO (UniProt Q9BUR5) | inactive: 0.076
